Measurements published in the supplement of paper PMC12819154, “High-throughput peptide-centric local stability assay extends protein–ligand identification to membrane proteins, tissues and bacteria” (Nature Structural & Molecular Biology, 2025).
This is one part of the list. Small differences around the control level are noise.

Protein sequences, listed by entry. Tags and fused reporters are not part of them. Lines headed by an entry give the natural chain unless they say otherwise; changes in a name come on top.
UniProt Q8IVM0: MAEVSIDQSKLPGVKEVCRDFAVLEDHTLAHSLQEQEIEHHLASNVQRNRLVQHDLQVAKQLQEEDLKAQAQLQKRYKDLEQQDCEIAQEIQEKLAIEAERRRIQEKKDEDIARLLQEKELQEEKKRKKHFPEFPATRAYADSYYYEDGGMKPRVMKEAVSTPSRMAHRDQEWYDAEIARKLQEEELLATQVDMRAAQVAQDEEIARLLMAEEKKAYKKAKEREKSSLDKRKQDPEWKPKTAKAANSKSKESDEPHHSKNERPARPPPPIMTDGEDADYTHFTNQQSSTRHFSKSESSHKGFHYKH
UniProt Q86XL3: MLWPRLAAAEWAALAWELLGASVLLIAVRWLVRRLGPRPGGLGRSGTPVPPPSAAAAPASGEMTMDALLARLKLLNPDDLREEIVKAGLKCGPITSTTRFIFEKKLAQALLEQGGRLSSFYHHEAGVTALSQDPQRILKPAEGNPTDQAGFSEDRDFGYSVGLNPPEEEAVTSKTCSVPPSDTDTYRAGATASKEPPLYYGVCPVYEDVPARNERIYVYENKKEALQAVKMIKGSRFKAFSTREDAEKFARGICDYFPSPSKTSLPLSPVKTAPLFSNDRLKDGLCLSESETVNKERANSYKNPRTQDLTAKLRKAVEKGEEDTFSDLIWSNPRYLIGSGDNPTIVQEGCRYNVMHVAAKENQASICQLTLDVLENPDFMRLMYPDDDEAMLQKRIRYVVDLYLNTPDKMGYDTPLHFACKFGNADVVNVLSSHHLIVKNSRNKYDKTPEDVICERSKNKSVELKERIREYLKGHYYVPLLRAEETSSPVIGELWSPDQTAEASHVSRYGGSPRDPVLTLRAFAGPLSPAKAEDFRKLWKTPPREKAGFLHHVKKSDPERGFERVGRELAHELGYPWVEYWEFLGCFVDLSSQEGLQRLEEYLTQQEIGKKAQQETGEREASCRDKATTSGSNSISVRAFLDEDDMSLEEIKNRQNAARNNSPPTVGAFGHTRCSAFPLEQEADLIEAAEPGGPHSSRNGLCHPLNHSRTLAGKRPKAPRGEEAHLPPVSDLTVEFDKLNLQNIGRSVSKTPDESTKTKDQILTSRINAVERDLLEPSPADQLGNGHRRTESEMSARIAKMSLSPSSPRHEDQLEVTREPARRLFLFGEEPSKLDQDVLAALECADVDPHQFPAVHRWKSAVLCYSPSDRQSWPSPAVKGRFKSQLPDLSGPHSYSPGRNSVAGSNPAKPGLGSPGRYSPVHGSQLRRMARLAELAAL
UniProt Q8N0W3: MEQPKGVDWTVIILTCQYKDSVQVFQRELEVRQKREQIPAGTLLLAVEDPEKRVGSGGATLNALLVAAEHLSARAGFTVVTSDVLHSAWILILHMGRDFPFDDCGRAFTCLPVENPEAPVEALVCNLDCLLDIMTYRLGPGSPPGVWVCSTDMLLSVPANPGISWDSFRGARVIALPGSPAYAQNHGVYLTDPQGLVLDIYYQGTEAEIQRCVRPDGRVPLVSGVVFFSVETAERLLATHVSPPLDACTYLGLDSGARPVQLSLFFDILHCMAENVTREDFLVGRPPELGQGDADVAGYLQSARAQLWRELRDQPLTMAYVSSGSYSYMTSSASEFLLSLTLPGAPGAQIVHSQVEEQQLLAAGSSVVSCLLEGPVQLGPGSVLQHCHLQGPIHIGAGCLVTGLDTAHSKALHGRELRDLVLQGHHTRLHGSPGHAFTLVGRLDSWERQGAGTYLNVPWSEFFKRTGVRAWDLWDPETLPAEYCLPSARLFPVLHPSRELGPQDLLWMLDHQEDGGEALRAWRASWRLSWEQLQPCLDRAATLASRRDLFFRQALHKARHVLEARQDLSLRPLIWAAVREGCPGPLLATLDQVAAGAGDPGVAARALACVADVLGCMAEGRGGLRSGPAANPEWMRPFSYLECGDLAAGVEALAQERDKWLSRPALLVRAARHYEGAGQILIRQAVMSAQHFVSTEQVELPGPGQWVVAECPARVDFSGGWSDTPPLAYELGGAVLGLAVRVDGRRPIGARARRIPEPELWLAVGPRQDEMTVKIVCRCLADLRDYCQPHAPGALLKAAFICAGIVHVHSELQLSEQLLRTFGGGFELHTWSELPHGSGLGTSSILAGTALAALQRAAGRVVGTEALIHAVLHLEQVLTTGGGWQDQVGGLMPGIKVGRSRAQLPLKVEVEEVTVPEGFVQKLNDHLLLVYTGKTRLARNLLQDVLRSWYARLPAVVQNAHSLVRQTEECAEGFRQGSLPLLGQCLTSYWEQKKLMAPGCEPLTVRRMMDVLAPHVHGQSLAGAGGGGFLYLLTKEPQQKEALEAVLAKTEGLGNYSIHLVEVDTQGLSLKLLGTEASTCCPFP
UniProt Q8N0Z3: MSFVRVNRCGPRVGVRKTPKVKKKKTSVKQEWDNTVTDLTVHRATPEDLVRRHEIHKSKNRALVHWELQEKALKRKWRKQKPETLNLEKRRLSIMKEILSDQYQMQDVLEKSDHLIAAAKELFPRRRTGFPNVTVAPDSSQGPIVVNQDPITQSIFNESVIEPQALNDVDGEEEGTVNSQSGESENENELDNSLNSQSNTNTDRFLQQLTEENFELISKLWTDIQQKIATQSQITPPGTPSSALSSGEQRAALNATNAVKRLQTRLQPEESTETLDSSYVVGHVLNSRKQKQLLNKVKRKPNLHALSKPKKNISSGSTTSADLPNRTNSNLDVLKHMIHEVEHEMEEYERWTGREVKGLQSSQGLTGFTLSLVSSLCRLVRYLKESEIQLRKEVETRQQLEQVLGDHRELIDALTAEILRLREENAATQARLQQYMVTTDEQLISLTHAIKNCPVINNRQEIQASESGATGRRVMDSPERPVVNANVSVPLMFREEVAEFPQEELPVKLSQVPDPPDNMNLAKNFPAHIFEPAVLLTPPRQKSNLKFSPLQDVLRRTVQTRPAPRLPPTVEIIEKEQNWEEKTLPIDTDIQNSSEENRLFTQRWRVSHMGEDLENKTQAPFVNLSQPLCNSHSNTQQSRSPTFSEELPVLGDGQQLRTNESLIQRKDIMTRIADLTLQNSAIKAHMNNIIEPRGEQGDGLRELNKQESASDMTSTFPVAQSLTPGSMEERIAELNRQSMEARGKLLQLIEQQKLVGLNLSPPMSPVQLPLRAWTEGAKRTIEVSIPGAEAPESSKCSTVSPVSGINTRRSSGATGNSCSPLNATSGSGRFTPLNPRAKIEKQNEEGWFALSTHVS
UniProt Q8IYB7: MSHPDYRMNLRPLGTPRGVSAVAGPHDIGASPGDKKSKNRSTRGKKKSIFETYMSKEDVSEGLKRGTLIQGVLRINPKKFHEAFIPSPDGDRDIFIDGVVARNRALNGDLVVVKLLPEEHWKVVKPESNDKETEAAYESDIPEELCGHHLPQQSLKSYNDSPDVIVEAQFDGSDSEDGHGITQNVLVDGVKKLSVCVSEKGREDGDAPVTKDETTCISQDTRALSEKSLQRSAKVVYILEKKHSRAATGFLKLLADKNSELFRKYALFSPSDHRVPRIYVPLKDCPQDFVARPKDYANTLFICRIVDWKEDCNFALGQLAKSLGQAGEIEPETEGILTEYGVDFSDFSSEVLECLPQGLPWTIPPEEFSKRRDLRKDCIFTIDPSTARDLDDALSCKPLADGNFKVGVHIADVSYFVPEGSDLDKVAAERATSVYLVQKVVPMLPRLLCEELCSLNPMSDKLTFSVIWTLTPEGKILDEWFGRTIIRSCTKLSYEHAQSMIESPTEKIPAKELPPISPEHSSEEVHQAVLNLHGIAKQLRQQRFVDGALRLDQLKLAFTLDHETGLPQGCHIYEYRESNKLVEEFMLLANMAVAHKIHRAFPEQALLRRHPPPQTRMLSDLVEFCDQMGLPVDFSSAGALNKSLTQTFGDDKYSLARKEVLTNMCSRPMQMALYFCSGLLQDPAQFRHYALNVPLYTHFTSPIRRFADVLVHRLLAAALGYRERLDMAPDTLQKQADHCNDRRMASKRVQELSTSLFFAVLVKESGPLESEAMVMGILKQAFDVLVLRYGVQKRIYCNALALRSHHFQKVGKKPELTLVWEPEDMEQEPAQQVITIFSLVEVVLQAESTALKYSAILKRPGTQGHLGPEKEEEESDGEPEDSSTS
UniProt Q8IZP9: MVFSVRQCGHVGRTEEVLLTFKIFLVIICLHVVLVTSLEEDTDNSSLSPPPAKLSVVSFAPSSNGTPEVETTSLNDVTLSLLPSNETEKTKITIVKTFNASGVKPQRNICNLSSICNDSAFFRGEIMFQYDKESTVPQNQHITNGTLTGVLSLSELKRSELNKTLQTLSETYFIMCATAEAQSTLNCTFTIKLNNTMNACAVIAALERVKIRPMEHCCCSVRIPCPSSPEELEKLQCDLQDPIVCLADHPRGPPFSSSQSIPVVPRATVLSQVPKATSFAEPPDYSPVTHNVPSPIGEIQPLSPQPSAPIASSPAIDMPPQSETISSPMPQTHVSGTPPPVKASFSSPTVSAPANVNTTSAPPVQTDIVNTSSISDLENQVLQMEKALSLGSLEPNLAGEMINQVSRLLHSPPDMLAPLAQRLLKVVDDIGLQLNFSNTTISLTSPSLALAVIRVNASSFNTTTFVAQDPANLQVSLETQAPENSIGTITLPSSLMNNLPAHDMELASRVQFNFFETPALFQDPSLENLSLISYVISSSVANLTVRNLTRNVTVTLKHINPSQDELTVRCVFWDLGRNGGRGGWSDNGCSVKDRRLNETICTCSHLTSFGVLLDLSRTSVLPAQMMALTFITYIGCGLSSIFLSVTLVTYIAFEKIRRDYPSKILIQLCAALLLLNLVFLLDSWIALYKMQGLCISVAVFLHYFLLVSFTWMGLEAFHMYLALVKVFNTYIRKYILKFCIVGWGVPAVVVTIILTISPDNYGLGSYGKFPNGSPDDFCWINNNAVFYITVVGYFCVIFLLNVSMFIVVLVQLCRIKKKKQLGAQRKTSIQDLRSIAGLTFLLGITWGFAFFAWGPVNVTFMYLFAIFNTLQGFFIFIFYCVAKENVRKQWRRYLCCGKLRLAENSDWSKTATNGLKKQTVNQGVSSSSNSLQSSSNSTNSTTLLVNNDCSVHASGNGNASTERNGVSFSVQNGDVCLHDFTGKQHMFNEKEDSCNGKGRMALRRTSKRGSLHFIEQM
UniProt Q86X02: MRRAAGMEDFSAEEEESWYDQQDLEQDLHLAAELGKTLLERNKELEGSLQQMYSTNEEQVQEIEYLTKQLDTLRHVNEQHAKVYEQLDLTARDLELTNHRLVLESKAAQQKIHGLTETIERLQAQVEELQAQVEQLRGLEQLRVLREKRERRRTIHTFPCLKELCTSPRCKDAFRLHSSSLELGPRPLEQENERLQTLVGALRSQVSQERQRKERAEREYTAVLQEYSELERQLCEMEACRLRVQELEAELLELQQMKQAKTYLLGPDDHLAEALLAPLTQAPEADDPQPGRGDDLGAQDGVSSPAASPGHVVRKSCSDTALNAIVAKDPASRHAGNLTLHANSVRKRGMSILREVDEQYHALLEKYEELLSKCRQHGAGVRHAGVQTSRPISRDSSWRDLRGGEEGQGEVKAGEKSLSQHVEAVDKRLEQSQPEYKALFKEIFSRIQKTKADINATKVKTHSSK
UniProt Q8IVF7, whole entry: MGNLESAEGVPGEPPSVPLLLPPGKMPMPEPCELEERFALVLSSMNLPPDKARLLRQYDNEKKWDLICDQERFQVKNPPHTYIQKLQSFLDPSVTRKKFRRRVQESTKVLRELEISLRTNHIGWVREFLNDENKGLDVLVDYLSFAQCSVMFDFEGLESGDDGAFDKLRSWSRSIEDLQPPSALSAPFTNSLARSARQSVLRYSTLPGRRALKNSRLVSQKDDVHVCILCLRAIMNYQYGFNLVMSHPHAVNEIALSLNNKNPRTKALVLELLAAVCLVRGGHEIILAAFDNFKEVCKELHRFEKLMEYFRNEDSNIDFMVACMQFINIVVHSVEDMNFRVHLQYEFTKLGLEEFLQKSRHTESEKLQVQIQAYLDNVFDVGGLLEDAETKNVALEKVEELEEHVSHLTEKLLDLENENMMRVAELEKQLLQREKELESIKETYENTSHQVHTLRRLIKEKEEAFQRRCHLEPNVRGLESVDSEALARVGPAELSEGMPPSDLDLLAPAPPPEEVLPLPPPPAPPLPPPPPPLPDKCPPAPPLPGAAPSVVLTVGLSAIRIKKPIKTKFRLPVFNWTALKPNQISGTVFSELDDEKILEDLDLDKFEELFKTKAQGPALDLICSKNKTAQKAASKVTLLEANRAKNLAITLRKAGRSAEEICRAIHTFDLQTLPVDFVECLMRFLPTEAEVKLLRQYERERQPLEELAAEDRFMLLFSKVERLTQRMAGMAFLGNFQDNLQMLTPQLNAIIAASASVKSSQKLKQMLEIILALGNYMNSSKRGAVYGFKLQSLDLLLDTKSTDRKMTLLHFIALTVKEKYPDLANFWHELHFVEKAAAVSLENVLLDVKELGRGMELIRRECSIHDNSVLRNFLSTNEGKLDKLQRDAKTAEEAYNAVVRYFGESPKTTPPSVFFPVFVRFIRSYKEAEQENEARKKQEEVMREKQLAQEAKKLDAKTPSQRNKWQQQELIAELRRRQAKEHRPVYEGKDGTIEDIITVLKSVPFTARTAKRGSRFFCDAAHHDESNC

Compound: CN[C@@H]1C[C@H]2O[C@@](C)([C@@H]1OC)n1c3ccccc3c3c4c(c5c6ccccc6n2c5c31)C(=O)NC4 [staurosporine]
Assay: log2 fold change of tryptic peptide abundance, ligand vs vehicle (limited proteolysis) (log2 ratio); higher = more trypsin-susceptible (destabilized)
Conditions: ligand concentration: 20 uM; sample: K562 cleared lysate; digestion: 4 min, 22 C (HT-PELSA RT4min, Orbitrap Astral)

Target	log2 fold change
YAF2 (peptide sequence: RQPKPSSDEGYWDCSVCTFR, peptide start residue: 12) (UniProt Q8IY57)	-0.607
C9orf40 (peptide sequence: DSGDNSAPSGQER, peptide start residue: 75) (UniProt Q8IXQ3)	-0.146
CCDC50 (peptide sequence: AAQVAQDEEIAR, peptide start residue: 196) (UniProt Q8IVM0)	-0.116
HIPK1 (peptide sequence: VVADGTGTR, peptide start residue: 975) (UniProt Q86Z02)	-0.24
ANKLE2 (peptide sequence: TSLPLSPVK, peptide start residue: 263) (UniProt Q86XL3)	0.185
UniProt Q8N0W3 (peptide sequence: EQIPAGTLLLAVEDPEKR, peptide start residue: 36)	-0.402
PPARGC1B (peptide sequence: ACSNPSQQVR, peptide start residue: 315) (UniProt Q86YN6)	0.69
ZC3HC1 (peptide sequence: DWCPWVNITLGKESR, peptide start residue: 427) (UniProt Q86WB0)	-0.418
CBWD2 (peptide sequence: TDLVPEEDVK, peptide start residue: 205) (UniProt Q8IUF1)	0.293
UniProt Q8N0Z3 (peptide sequence: VSHMGEDLENK, peptide start residue: 606)	0.416
IFT20 (peptide sequence: DILGEAGLHFDELNK, peptide start residue: 4) (UniProt Q8IY31)	-0.015
DIS3L2 (peptide sequence: QAFDVLVLR, peptide start residue: 780) (UniProt Q8IYB7)	-0.437
UniProt Q8IYU8 (peptide sequence: GLWVPQHQSIQEYWK, peptide start residue: 398)	-0.46
ADGRG2 (peptide sequence: RYLCCGKLR, peptide start residue: 892) (UniProt Q8IZP9)	0.235
RHOT2 (peptide sequence: SCFGHPLAPQALEDVK, peptide start residue: 215) (UniProt Q8IXI1)	0.14
CEP57L1 (peptide sequence: NSSFHPIR, peptide start residue: 436) (UniProt Q8IYX8)	0.461
UniProt Q8IWG1 (peptide sequence: KVKTYQK, peptide start residue: 843)	-0.119
AMOTL1 (peptide sequence: VLHQELQGYYDNADKLHKFEK, peptide start residue: 454) (UniProt Q8IY63)	-0.233
PALB2 (peptide sequence: FTSPVSLEAQGK, peptide start residue: 283) (UniProt Q86YC2)	0.521
ERICH1 (peptide sequence: HAEPLTDTGSETPTAR, peptide start residue: 51) (UniProt Q86X53)	0.45
ZBED8 (peptide sequence: HMPAPSDQSETLK, peptide start residue: 68) (UniProt Q8IZ13)	-0.358
TCEAL8 (peptide sequence: HLDPEEMIR, peptide start residue: 69) (UniProt Q8IYN2)	0.161
CDR2L (peptide sequence: LEQSQPEYK, peptide start residue: 429) (UniProt Q86X02)	-0.292
UniProt Q8N0T1 (peptide sequence: NVFHIASQK, peptide start residue: 13)	0.299
UniProt Q8IUW3 (peptide sequence: GVLSDDLLLK, peptide start residue: 113)	-0.00349
UniProt Q8IVE0 (peptide sequence: LQAAQEELR, peptide start residue: 629)	-0.0915
ZNF101 (peptide sequence: RQGDHLSPGV, peptide start residue: 427) (UniProt Q8IZC7)	0.306
FMNL3 (peptide sequence: GGHEIILAAFDNFK, peptide start residue: 281) (UniProt Q8IVF7)	1.05

Laid out differently: results already given.
Target,log2 fold change
"HIPK1 (peptide sequence: VVADGTGTR, peptide start residue: 975) (UniProt Q86Z02)",-0.24
"DIS3L2 (peptide sequence: QAFDVLVLR, peptide start residue: 780) (UniProt Q8IYB7)",-0.437
